Results are given in words; binding and its absence hold for the method and conditions named. Some binding calls cover weakened binding; strength is not graded here.
Target: T1, GPR110 transmembrane domain (the CTF 567-873 after the stalk peptide 567-576), with LgBiT at its C-terminus (human) (UniProt Q5T601)
T1 sequence: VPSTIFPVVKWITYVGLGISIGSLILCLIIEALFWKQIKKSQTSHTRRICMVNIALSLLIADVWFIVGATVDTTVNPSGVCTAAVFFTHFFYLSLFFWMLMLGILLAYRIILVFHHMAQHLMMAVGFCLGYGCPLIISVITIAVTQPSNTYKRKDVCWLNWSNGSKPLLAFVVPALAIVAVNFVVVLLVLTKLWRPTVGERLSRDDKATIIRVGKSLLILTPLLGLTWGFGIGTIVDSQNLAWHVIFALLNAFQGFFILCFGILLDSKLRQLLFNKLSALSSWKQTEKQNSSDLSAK
Test: cryo-EM structure; GPR110 CTF-LgBiT, Gα, Gβ1-HiBiT and Gγ2 co-expressed in Sf9 (NanoBiT tethering); Nb35 added for mini-Gs and mini-Gq, scFv16 for Gi, G12 and G13; complex purified on amylose, cut with TEV, Superdex 200 in 20 mM Hepes pH 7.5, 150 mM NaCl, LMNG/GDN/CHS; about 10 mg/ml on grids; single particle …

Binder: TSFSILMSPN [stalk peptide of GPR110 (…, 567-576)]
- binding: binds
